Source: patent publication US10479786B2, “Protein kinase inhibitors” (Princeton Drug Discovery Inc, priority 2016, dated 2019)
Some entries share one result that the patent states for a list of compounds.

tested on: SU-DHL-4; experiment: Cell inhibition assay (PrestoBlue, 48 h); type: cell-based; settings: SU-DHL-4 diffuse large B-cell lymphoma cells, read-out: IC50, inhibition of growth

SMILES | IC50
Cc1nc(Nc2ncc(C(=O)Nc3c(C)cccc3Cl)s2)cc(N2CC[C@@H](N)C2)n1 [Compound XIII, N-(2-chloro-6-methylphenyl)-2-[[2-methyl-6-((R)-3-aminopyrrolidin-1-yl)pyrimidin-4-yl]amino]thiazole-5-carboxamide] | < 15 nM
Cc1nc(Nc2ncc(C(=O)Nc3c(C)cccc3Cl)s2)cc(N2CC[C@H](O)C2)n1 [Compound X, N-(2-chloro-6-methylphenyl)-2-[[2-methyl-6-((S)-3-hydroxypyrrolidin-1-yl)pyrimidin-4-yl]amino]thiazole-5-carboxamide] | < 15 nM
[2H]c1cc(C)c(NC(=O)c2cnc(Nc3cc(N4CC[C@H](O)C4)nc(C)n3)s2)c(Cl)c1 [Compound IV, N-(2-chloro-4-deutero-6-methylphenyl)-2-[[2-methyl-6-((S)-3-hydroxypyrrolidin-1-yl)pyrimidin-4-yl]amino]thiazole-5-carboxamide] | < 15 nM
[2H]c1cc(C)c(NC(=O)c2cnc(Nc3cc(N4CC[C@H](N)C4)nc(C)n3)s2)c(Cl)c1 [Compound VI, N-(2-chloro-4-dutero-6-methylphenyl)-2-[[2-methyl-6-((S)-3-aminopyrrolidin-1-yl)pyrimidin-4-yl]amino]thiazole-5-carboxamide] | < 15 nM
Cc1nc(Nc2ncc(C(=O)Nc3c(C)cccc3Cl)s2)cc(N2CCCCC2)n1 [Compound VIII, N-(2-chloro-6-methylphenyl)-2-[[2-methyl-6-(piperidin-1-yl)pyrimidin-4-yl]amino]thiazole-5-carboxamide] | < 15 nM
Cc1nc(Nc2ncc(C(=O)Nc3c(C)cccc3Cl)s2)cc(N2CCCC2)n1 [Compound XIV, N-(2-chloro-6-methylphenyl)-2-[[2-methyl-6-(pyrrolidin-1-yl)pyrimidin-4-yl]amino]thiazole-5-carboxamide] | < 15 nM
[2H]c1cc(C)c(NC(=O)c2cnc(Nc3cc(N4CCCCC4)nc(C)n3)s2)c(Cl)c1 [Compound I, N-(2-chloro-4-deuterio-6-methyl-phenyl)-2-[[2-methyl-6-(1-piperidyl)pyrimidin-4-yl]amino]thiazole-5-carboxamide] | < 15 nM
Cc1nc(Nc2ncc(C(=O)Nc3c(C)cccc3Cl)s2)cc(N2CC[C@@H](O)C2)n1 [Compound XI, N-(2-chloro-6-methylphenyl)-2-[[2-methyl-6-((R)-3-hydroxypyrrolidin-1-yl)pyrimidin-4-yl]amino]thiazole-5-carboxamide] | < 15 nM
Cc1nc(Nc2ncc(C(=O)Nc3c(C)cccc3Cl)s2)cc(N2CCC(O)CC2)n1 [Compound IX, N-(2-chloro-6-methylphenyl)-2-[[2-methyl-6-(4-hydroxypiperidin-1-yl)pyrimidin-4-yl]amino]thiazole-5-carboxamide] | < 15 nM
[2H]c1cc(C)c(NC(=O)c2cnc(Nc3cc(N4CC[C@@H](O)C4)nc(C)n3)s2)c(Cl)c1 [Compound V, N-(2-chloro-4-deutero-6-methylphenyl)-2-[[2-methyl-6-((R)-3-hydroxypyrrolidin-1-yl)pyrimidin-4-yl]amino]thiazole-5-carboxamide] | < 15 nM
[2H]c1cc(C)c(NC(=O)c2cnc(Nc3cc(N4CC[C@@H](N)C4)nc(C)n3)s2)c(Cl)c1 [Compound VII, N-(2-chloro-4-deutero-6-methylphenyl)-2-[[2-methyl-6-((R)-3-aminopyrrolidin-1-yl)pyrimidin-4-yl]amino]thiazole-5-carboxamide] | < 15 nM
Cc1nc(Nc2ncc(C(=O)Nc3c(C)cccc3Cl)s2)cc(N2CC[C@H](N)C2)n1 [Compound XII, N-(2-chloro-6-methylphenyl)-2-[[2-methyl-6-((S)-3-aminopyrrolidin-1-yl)pyrimidin-4-yl]amino]thiazole-5-carboxamide] | < 15 nM
[2H]c1cc(C)c(NC(=O)c2cnc(Nc3cc(N4CCC(O)CC4)nc(C)n3)s2)c(Cl)c1 [Compound II, N-(2-chloro-4-deuterio-6-methyl-phenyl)-2-[[6-(4-hydroxy-1-piperidyl)-2-methyl-pyrimidin-4-yl]amino]thiazole-5-carboxamide] | < 15 nM
